Measured values: PubChem BioAssay AID248 (DTP/NCI, 2004)
The list does not hold the whole screen: it gathers tests that were run many times, whatever their T/C, doses with no T/C, and many T/C values between a quarter and a half above the control. Other doses and runs of a compound stand elsewhere. T/C is the treated group as % of the vehicle group. Where survival is the endpoint, this PubChem deposit counts one and a half times the control or more as active, and values a quarter to a half above the control carry no call in these data; other NCI protocols may use other cut-offs. Schedules are NCI's codes, taken here to give the interval after Q, in days (D) or hours (H), and the number of doses after X. Some T/C values carry the count of animals alive at the toxicity check (mostly the fifth day); without a count, all were alive then. Some entries hold several experiments; their values stand side by side, smallest first. Additions like (4×) stand for listed records that agree.

System: L1210 leukemia ip in BDF1 mice, survival T/C
Assay: NCI In Vivo Anticancer Drug Screen. Data for tumor model L1210 Leukemia (intraperitoneal) in B6D2F1 (BDF1) mice
Details: higher T/C = longer survival

With COc1cccc2c1C(=O)c1c(O)c3c(c(O)c1C2=O)C[C@@](O)(C(=O)CO)C[C@@H]3OC1CC(N)C(O)C(C)O1 (some centres undefined) the T/C (T/C endpoint: mean survival time, dose: 67.0 micrograms/kg/injection, schedule: Q03HX032 (ip), vehicle: clinical formulation) was 125 % of control, the T/C (T/C endpoint: mean survival time, dose: 220.0 micrograms/kg/injection, schedule: Q03HX032 (ip), vehicle: clinical formulation) was 126 % of control and the T/C (T/C endpoint: mean survival time, dose: 330.0 micrograms/kg/injection, schedule: Q03HX032 (ip), vehicle: clinical formulation) was 131 % of control. The T/C (T/C endpoint: mean survival time, dose: 750.0 micrograms/kg/injection, schedule: Q03HX032 (ip), vehicle: clinical formulation) was 147 % of control, the T/C (T/C endpoint: median survival time, dose: 0.19 mg/kg/injection, schedule: Q03HX008 (ip), vehicle: water, evaluated on day 5) was 103, 111, 121 % of control and the T/C (T/C endpoint: median survival time, dose: 0.19 mg/kg/injection, schedule: Q03HX008 (ip), vehicle: water, evaluated on day 20) was 111 % of control. For the same compound, the T/C (T/C endpoint: median survival time, dose: 0.19 mg/kg/injection, schedule: Q03HX008 (ip), vehicle: water, evaluated on day 29) was 121 % of control, the T/C (T/C endpoint: median survival time, dose: 0.19 mg/kg/injection, schedule: Q03HX008 (ip), vehicle: water, evaluated on day 30) was 103 % of control and the T/C (T/C endpoint: median survival time, dose: 0.23 mg/kg/injection, schedule: Q04DX003 (ip), vehicle: water) was 125 % of control. For the same compound, the T/C (T/C endpoint: median survival time, dose: 0.25 mg/kg/injection, schedule: Q01DX005 (ip), vehicle: other, evaluated on day 5) was 130 % of control, the T/C (T/C endpoint: median survival time, dose: 0.25 mg/kg/injection, schedule: Q01DX005 (ip), vehicle: other, evaluated on day 31) was 130 % of control and the T/C (T/C endpoint: median survival time, dose: 0.25 mg/kg/injection, schedule: Q03HX008 (ip), vehicle: water, evaluated on day 5) was 141 % of control. For the same compound, the T/C (T/C endpoint: median survival time, dose: 0.25 mg/kg/injection, schedule: Q03HX008 (ip), vehicle: water, evaluated on day 30) was 129 % of control [9 of 10 alive], the T/C (T/C endpoint: median survival time, dose: 0.25 mg/kg/injection, schedule: Q03HX008 (ip), vehicle: water, evaluated on day 46) was 145 % of control and the T/C (T/C endpoint: median survival time, dose: 0.25 mg/kg/injection, schedule: Q03HX024 (ip), vehicle: water) was 131 % of control. The T/C (T/C endpoint: median survival time, dose: 0.38 mg/kg/injection, schedule: Q03HX008 (ip), vehicle: water, evaluated on day 5) was 113 (2×), 125, 130, 132 % of control, the T/C (T/C endpoint: median survival time, dose: 0.38 mg/kg/injection, schedule: Q03HX008 (ip), vehicle: water, evaluated on day 7) was 105 % of control and the T/C (T/C endpoint: median survival time, dose: 0.38 mg/kg/injection, schedule: Q03HX008 (ip), vehicle: water, evaluated on day 20) was 130 % of control [7 of 8 alive]. For the same compound, the T/C (T/C endpoint: median survival time, dose: 0.38 mg/kg/injection, schedule: Q03HX008 (ip), vehicle: water, evaluated on day 29) was 132 % of control [7 of 8 alive], the T/C (T/C endpoint: median survival time, dose: 0.38 mg/kg/injection, schedule: Q03HX008 (ip), vehicle: water, evaluated on day 30) was 105, 113, 113 % of control [7 of 8 alive] and the T/C (T/C endpoint: median survival time, dose: 0.38 mg/kg/injection, schedule: Q03HX008 (ip), vehicle: water, evaluated on day 60) was 125 % of control. For the same compound, the T/C (T/C endpoint: median survival time, dose: 0.38 mg/kg/injection, schedule: Q04DX003 (ip), vehicle: water, evaluated on day 5) was 132 % of control, the T/C (T/C endpoint: median survival time, dose: 0.38 mg/kg/injection, schedule: Q04DX003 (ip), vehicle: water, evaluated on day 60) was 132 % of control and the T/C (T/C endpoint: median survival time, dose: 0.39 mg/kg/injection, schedule: Q01DX005 (ip), vehicle: water, evaluated on day 5) was 120 % of control. The T/C (T/C endpoint: median survival time, dose: 0.39 mg/kg/injection, schedule: Q01DX005 (ip), vehicle: water, evaluated on day 60) was 120 and 121 % of control, the T/C (T/C endpoint: median survival time, dose: 0.39 mg/kg/injection, schedule: Q01DX005 (ip), vehicle: water, evaluated on day 90) was 133 % of control and the T/C (T/C endpoint: median survival time, dose: 0.39 mg/kg/injection, schedule: Q03HX008 (ip), vehicle: none) was 138 % of control. For the same compound, the T/C (T/C endpoint: median survival time, dose: 0.39 mg/kg/injection, schedule: Q03HX008 (ip), vehicle: water, evaluated on day 5) was 142 and 151 % of control, the T/C (T/C endpoint: median survival time, dose: 0.39 mg/kg/injection, schedule: Q03HX008 (ip), vehicle: water, evaluated on day 7) was 106 % of control and the T/C (T/C endpoint: median survival time, dose: 0.39 mg/kg/injection, schedule: Q03HX008 (ip), vehicle: water, evaluated on day 30) was 140 % of control. For the same compound, the T/C (T/C endpoint: median survival time, dose: 0.39 mg/kg/injection, schedule: Q03HX008 (ip), vehicle: water, evaluated on day 46) was 150 % of control, the T/C (T/C endpoint: median survival time, dose: 0.39 mg/kg/injection, schedule: Q03HX008 (ip), vehicle: water, evaluated on day 60) was 136 % of control and the T/C (T/C endpoint: median survival time, dose: 0.39 mg/kg/injection, schedule: Q03HX008 (ip), vehicle: water, evaluated on day 63) was 105 % of control. For the same compound, the T/C (T/C endpoint: median survival time, dose: 0.39 mg/kg/injection, schedule: Q03HX016 (ip), vehicle: water, evaluated on day 5) was 135 % of control, the T/C (T/C endpoint: median survival time, dose: 0.39 mg/kg/injection, schedule: Q03HX016 (ip), vehicle: water, evaluated on day 46) was 133 % of control and the T/C (T/C endpoint: median survival time, dose: 0.39 mg/kg/injection, schedule: Q03HX016 (ip), vehicle: water, evaluated on day 60) was 95 and 109 % of control. For the same compound, the T/C (T/C endpoint: median survival time, dose: 0.39 mg/kg/injection, schedule: Q03HX024 (ip), vehicle: water, evaluated on day 7) was 108 and 116 % of control, the T/C (T/C endpoint: median survival time, dose: 0.39 mg/kg/injection, schedule: Q03HX024 (ip), vehicle: water, evaluated on day 32) was 116 % of control and the T/C (T/C endpoint: median survival time, dose: 0.39 mg/kg/injection, schedule: Q03HX024 (ip), vehicle: water, evaluated on day 60) was 90 [7 of 8 alive] and 118 % of control. The T/C (T/C endpoint: median survival time, dose: 0.39 mg/kg/injection, schedule: Q03HX024 (ip), vehicle: water, evaluated on day 63) was 105 % of control [7 of 8 alive], the T/C (T/C endpoint: median survival time, dose: 0.5 mg/kg/injection, schedule: Q03HX008 (ip), vehicle: water, evaluated on day 5) was 131 % of control and the T/C (T/C endpoint: median survival time, dose: 0.5 mg/kg/injection, schedule: Q03HX008 (ip), vehicle: water, evaluated on day 30) was 129 % of control. The T/C (T/C endpoint: median survival time, dose: 0.5 mg/kg/injection, schedule: Q03HX008 (ip), vehicle: water, evaluated on day 46) was 130 % of control, the T/C (T/C endpoint: median survival time, dose: 0.5 mg/kg/injection, schedule: Q03HX008 (ip), vehicle: water, evaluated on day 61) was 100 % of control and the T/C (T/C endpoint: median survival time, dose: 0.5 mg/kg/injection, schedule: Q03HX024 (ip), vehicle: water) was 131 % of control. For the same compound, the T/C (T/C endpoint: median survival time, dose: 0.5 mg/kg/injection, schedule: Q04DX003 (ip), vehicle: water, evaluated on day 5) was 132 % of control, the T/C (T/C endpoint: median survival time, dose: 0.5 mg/kg/injection, schedule: Q04DX003 (ip), vehicle: water, evaluated on day 30) was 132 % of control and the T/C (T/C endpoint: median survival time, dose: 0.65 mg/kg/injection, schedule: Q01DX005 (ip), vehicle: water, evaluated on day 5) was 148 % of control. For the same compound, the T/C (T/C endpoint: median survival time, dose: 0.65 mg/kg/injection, schedule: Q01DX005 (ip), vehicle: water, evaluated on day 35) was 115 % of control, the T/C (T/C endpoint: median survival time, dose: 0.65 mg/kg/injection, schedule: Q01DX005 (ip), vehicle: water, evaluated on day 60) was 131 and 148 % of control and the T/C (T/C endpoint: median survival time, dose: 0.65 mg/kg/injection, schedule: Q01DX005 (ip), vehicle: water, evaluated on day 90) was 144 % of control. The T/C (T/C endpoint: median survival time, dose: 0.65 mg/kg/injection, schedule: Q03HX008 (ip), vehicle: water, evaluated on day 5) was 121, 132, 133, 142 % of control, the T/C (T/C endpoint: median survival time, dose: 0.65 mg/kg/injection, schedule: Q03HX008 (ip), vehicle: water, evaluated on day 7) was 105, 108, 114, 115 % of control and the T/C (T/C endpoint: median survival time, dose: 0.65 mg/kg/injection, schedule: Q03HX008 (ip), vehicle: water, evaluated on day 20) was 108 % of control.
